Measured values as given in article doi:10.1101/747592.
These are yes or no findings as the source states them, for the method shown. In cells and extracts the contact can be indirect. Some results given as binding are weak or reduced against the parent protein; the word gives no strength. Where a sequence is shown, tags or fusion partners need not be part of it.

Chains of the proteins cited; added tags and fusions are not shown. Residues count along the entry.
UniProt O75197, residues 32-1615: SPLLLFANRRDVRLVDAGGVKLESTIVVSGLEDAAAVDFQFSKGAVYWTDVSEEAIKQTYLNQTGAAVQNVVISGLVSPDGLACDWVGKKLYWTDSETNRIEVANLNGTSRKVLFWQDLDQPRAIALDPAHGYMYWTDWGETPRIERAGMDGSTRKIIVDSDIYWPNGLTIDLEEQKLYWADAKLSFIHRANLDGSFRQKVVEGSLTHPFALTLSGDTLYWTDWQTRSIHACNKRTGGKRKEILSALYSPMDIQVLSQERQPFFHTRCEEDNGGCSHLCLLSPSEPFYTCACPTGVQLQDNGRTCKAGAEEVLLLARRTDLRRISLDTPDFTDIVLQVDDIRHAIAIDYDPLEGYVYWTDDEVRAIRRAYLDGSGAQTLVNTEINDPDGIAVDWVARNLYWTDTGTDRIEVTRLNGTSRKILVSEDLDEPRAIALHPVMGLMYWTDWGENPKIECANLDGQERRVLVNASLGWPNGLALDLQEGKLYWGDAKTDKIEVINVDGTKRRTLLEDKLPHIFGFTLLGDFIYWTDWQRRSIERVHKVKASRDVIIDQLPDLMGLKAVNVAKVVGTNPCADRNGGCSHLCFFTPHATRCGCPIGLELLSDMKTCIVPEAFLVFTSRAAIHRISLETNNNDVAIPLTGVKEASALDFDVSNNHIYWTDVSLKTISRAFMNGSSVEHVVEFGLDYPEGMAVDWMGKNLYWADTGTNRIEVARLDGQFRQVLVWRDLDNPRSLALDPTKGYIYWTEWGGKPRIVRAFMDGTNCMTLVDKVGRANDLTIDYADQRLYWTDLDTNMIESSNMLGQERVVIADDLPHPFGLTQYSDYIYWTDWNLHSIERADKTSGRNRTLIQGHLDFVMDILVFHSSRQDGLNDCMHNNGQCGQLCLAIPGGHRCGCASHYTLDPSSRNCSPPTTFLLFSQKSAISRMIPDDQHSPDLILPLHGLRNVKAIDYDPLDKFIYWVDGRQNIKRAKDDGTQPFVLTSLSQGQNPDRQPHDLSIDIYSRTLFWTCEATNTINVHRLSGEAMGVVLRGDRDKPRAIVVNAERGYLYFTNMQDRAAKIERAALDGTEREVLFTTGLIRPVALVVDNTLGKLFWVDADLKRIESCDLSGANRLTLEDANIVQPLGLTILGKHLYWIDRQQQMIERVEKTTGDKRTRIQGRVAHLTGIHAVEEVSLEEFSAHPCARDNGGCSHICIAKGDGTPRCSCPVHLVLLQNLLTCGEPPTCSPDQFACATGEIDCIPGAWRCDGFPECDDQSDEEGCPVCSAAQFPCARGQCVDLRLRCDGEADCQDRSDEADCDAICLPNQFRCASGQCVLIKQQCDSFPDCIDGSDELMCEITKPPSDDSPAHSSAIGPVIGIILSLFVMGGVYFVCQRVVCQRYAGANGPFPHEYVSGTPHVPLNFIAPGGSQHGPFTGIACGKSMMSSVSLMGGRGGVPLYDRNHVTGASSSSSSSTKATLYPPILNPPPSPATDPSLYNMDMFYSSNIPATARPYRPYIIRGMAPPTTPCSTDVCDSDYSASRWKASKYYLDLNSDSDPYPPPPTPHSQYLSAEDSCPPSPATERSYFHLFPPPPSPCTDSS

Target: T1, Flag-tagged SNX17 (plasmid pECE-M2-Snx17-Flag) (UniProt Q15036)
T1 sequence: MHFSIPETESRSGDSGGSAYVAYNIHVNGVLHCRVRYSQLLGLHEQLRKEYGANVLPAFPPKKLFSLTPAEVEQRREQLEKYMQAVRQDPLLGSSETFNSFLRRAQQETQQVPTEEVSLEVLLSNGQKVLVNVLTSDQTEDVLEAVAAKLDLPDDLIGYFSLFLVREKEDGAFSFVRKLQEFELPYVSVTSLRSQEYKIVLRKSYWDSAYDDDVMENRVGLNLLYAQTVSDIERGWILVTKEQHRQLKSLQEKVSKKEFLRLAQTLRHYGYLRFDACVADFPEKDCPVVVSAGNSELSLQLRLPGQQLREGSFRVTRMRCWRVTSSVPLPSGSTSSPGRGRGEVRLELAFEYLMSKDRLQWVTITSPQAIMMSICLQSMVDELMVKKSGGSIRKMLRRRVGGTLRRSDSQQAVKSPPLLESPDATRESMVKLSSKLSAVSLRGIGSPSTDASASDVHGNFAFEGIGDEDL
Experiment: co-IP

Substance	binding
LRP5 (low-density lipoprotein receptor-related protein 5), endogenous (from UniProt O75197 32-1615)	binds
Myc-tagged LRP5 (low-density lipoprotein receptor-related protein 5; plasmid pcDNA3.1-Lrp5-myc-His) (from UniProt O75197 32-1615)	binds
